In ChEMBL document CHEMBL5038592, “Discovery of MK-8153, a Potent and Selective ROMK Inhibitor and Novel Diuretic/Natriuretic” (J Med Chem, 2021):

Assay: Apparent permeability in pig LLC-PK1 cells

COc1nsc(N2CCC3(CCN(C[C@H](O)c4ccc5c(c4C)COC5=O)CC3)C2=O)n1
Papp: 36 ×10⁻⁶ cm/s
